System: Individuals with a diagnosis of probable AD
Experiment: ADCS anti-inflammatory clinical trial, 1-year exposure; MMSE and CDR-SB outcomes by treatment arm and proinflammatory endophenotype
Type: in vivo, human
From the text: Data source. Banked plasma samples from the Alzheimer's Disease Cooperative Studies (ADCS) anti-inflammatory clinical trial were used. […] This was a multicenter, randomized, double-blind, placebo-controlled parallel group trial with 1-year exposure to study medications across forty ambulatory treatment centers affiliated with the ADCS. […] Inclusion criteria were as follows: age 50 or older, MMSE score of 13-26 and diagnosis of probable AD. Stable use of cholinesterase inhibitors was allowed.
Statistical Analyses. Biomarker data were transformed using the Box-Cox transformation per previously published protocols, relevant portions incorporated herein by reference. Support vector machine (SVM) analyses were utilized to build the proteomic profiles simultaneously classifying all outcome groups in R per the inventors previously published methods, relevant portions incorporated herein by reference. SVM analyses are capable of simultaneously taking into account large volume data to generate an overall profile (e.g., over and under-expression of select proteins) that most accurately classifies multiple outcomes rather than only binary outcomes. MMSE change scores were utilized as the outcome variables for the study (i.e. MMSE screening−MMSE 12-month follow-up=MMSE change). Participants were classified into four groups based on change in MMSE scores over 12-months: responders (improved MMSE scores of >=1 point over 12 mo), stable (no change in MMSE over 12 months), non-responders (MMSE decline of 1-2 points over 12 mo) or adverse responders (MMSE decline of 3 or more points over 12 mo). To build inflammatory profiles of treatment response, group status (i.e. treatment response) was utilized as the outcome variable in SVM models with pre-randomization inflammatory proteins as the predictor variable. In order to determine if the proinflammatory profile of treatment response was drug-specific, analyses were conducted utilizing the total sample as well as within specific study treatment arms. […]

[1] = within treatment arm, no change in MMSE over 12 months

In the case of `COc1ccc2cc([C@H](C)C(=O)O)ccc2c1` [Naproxen, naproxen], the “treatment comparison of non-selective versus selective NSAIDs” value (patients in the high end of the proinflammatory endophenotype) is reported as “superior treatment”, the “participants who remained stable on MMSE (number)” value [1] is reported as 4 and the “participants who remained stable on MMSE (percent of arm)” value [1] is reported as 8%.

Source: patent publication US12287324B2, “Companion diagnostics for NSAIDS and donepezil for treating specific subpopulations of patients suffering from Alzheimer's disease” (University of North Texas Health Science Center at Fort …, priority 2018, dated 2025)
